In paper PMC10657439 (Cell Death and Differentiation, 2023):
No constants are given. Whether binding was seen depends on the method and setting. For some of these results: In cells and extracts the contact can be indirect. Some binding calls cover weakened binding; strength is not graded here. For some of these results: Sequences can lack the tags named with a protein.

The chains behind the UniProt entries cited, without tags or fusion partners. Where a name states a change or a piece, a line headed by the entry shows the natural chain unless it says otherwise. A line that says so, or that is headed by a name, gives the form on record, which may keep a tag or linker. Residues count along the entry.
UniProt P25445: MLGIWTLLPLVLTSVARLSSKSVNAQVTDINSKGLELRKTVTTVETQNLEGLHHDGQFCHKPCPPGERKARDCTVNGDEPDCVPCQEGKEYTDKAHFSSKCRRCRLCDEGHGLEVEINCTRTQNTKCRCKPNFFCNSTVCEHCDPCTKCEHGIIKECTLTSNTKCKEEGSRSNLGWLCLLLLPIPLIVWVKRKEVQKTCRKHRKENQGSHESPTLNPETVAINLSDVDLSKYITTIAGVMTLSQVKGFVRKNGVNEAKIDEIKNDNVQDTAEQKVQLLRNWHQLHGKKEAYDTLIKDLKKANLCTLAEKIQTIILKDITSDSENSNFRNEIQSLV
Fc-tagged Fas (recombinant extracellular domain of Fas with a C-terminal Fc): residues 26-173 of P25445

How the values were obtained:
[1] = molecular target: His_FasL^WT (N-terminal His-tagged human FasL, wild type) (human); test: co-IP; OVCAR3 cells treated with His-tagged FasL; immunoprecipitation with anti-His antibody, immunoblot with anti-Fas antibody; only the target purified
[2] = molecular target: His_FasL^D164A (printed as His_FasL^D163A in Table 1) (human); test: as above
[3] = molecular target: His_FasL^E270A (human); test: as above
[4] = molecular target: Fc-tagged Fas (recombinant extracellular domain of Fas with a C-terminal Fc) (human) (UniProt P25445); test: ELISA; Fc-tagged Fas (2 μg/ml) coated on 96-well plates; His-tagged FasL (single or tandem) in 2-fold dilutions from 50 to 0.048 nM, 1 h at 37 °C; both purified
[5] = molecular target: Fc-tagged Fas (recombinant extracellular domain of Fas with a C-terminal Fc) (human) (UniProt P25445); test: condition: 50 nM (highest of the dilution series, methods); ELISA; Fc-tagged Fas (2 μg/ml) coated on 96-well plates; His-tagged FasL (single or tandem) in 2-fold dilutions from 50 to 0.048 nM, 1 h at 37 °C; both purified

Molecule | binding [4] | binding [5] | also measured
Fas (CD95), endogenous on human cells (from UniProt P25445 26-335) (receptor) | – | – | binding [1]: binds; binding [2]: binds; binding [3]: binds
His_FasL^E163A (ligand, human, linker between the His tag and FasL; also called A163; source: FreeStyle CHO-S cells, transfected, purified (Ni-Sepharose HisTrap); not shown: His7, N-terminal, kept) GGSPSPPPEKKELRKVAHLTGKSNSRSMPLEWADTYGIVLLSGVKYKKGGLVINETGLYFVYSKVYFRGQSCNNLPLSHKVYMRNSKYPQDLVMMEGKMMSYCTTGQMWARSSYLGAVFNLTSADHLYVNVSELSLVNFEESQTFFGLYKL | – | no binding | –

Second part, led by results:

binding [4] | binding [5] | Molecule | also measured
no binding | – | His_FasL^WT-E163A (tandem: wild-type FasL unit and E163A unit) (ligand) GGSPSPPPEKKELRKVAHLTGKSNSRSMPLEWEDTYGIVLLSGVKYKKGGLVINETGLYFVYSKVYFRGQSCNNLPLSHKVYMRNSKYPQDLVMMEGKMMSYCTTGQMWARSSYLGAVFNLTSADHLYVNVSELSLVNFEESQTFFGLYKLGGGSGGGSGGGSPSPPPEKKELRKVAHLTGKSNSRSMPLEWADTYGIVLLSGVKYKKGGLVINETGLYFVYSKVYFRGQSCNNLPLSHKVYMRNSKYPQDLVMMEGKMMSYCTTGQMWARSSYLGAVFNLTSADHLYVNVSELSLVNFEESQTFFGLYKL | –
no binding | – | His_FasL^WT-E271A (tandem: wild-type FasL unit and E271A unit) (ligand) GGSPSPPPEKKELRKVAHLTGKSNSRSMPLEWEDTYGIVLLSGVKYKKGGLVINETGLYFVYSKVYFRGQSCNNLPLSHKVYMRNSKYPQDLVMMEGKMMSYCTTGQMWARSSYLGAVFNLTSADHLYVNVSELSLVNFEESQTFFGLYKLGGGSGGGSGGGSPSPPPEKKELRKVAHLTGKSNSRSMPLEWEDTYGIVLLSGVKYKKGGLVINETGLYFVYSKVYFRGQSCNNLPLSHKVYMRNSKYPQDLVMMEGKMMSYCTTGQMWARSSYLGAVFNLTSADHLYVNVSELSLVNFEASQTFFGLYKL | –
– | no binding | His_FasL^E271A (ligand, human, linker between the His tag and FasL; also called A271; source: FreeStyle CHO-S cells, transfected, purified (Ni-Sepharose HisTrap); not shown: His7, N-terminal, kept) GGSPSPPPEKKELRKVAHLTGKSNSRSMPLEWEDTYGIVLLSGVKYKKGGLVINETGLYFVYSKVYFRGQSCNNLPLSHKVYMRNSKYPQDLVMMEGKMMSYCTTGQMWARSSYLGAVFNLTSADHLYVNVSELSLVNFEASQTFFGLYKL | –
